Experimental data reported in paper PMC6199744, “Development of Chemical Proteomics for the Folateome and Analysis of the Kinetoplastid Folateome” (ACS Infectious Diseases, 2018).
This continues a long series; more values of the same kind are listed elsewhere.

System: L. major lysate proteins
Test: Multitargeted bead mixture chemoproteomics, single concentration competition, proteome-wide
Assay type: binding
Settings: for fold change: vehicle control = 1

CCCCCCOc1ccc(Cc2cnc(N)nc2N)cc1 [compound 1]
fold change (protein LMJF.11.0350 14-3-3 PROTEIN, PUTATIVE): 1.09 | fold change (protein LMJF.11.0630 AMINOPEPTIDASE, PUTATIVE,METALLO-PEPTIDASE, CLAN MF, FAMILY M17): 1.14 | fold change (protein LMJF.11.1160 PROTEIN TRANSPORT PROTEIN SEC31, PUTATIVE): 1.08 | fold change (protein LMJF.12.0030 […]-1 SUBUNIT, PUTATIVE): 1.11 | fold change (protein LMJF.12.0530 GLUCOSE-6-PHOSPHATE ISOMERASE): 1.66 | fold change (protein LMJF.12.0670 […] OXIDASE SUBUNIT IV): 1.09 | fold change (protein LMJF.13.0570 40S RIBOSOMAL PROTEIN S12, PUTATIVE): 1.01 | fold change (protein LMJF.13.1190 ADENYLOSUCCINATE SYNTHETASE, PUTATIVE): 0.99 | fold change (protein LMJF.13.1660 CHAPERONIN TCP20, PUTATIVE): 0.94 | fold change vs vehicle control (protein LMJF.14.0190 HYPOTHETICAL PROTEIN, CONSERVED): 0.92 | fold change (protein LMJF.14.0460 CYSTATHIONINE BETA-LYASE-LIKE PROTEIN): 0.76 | fold change (protein LMJF.14.0680 FATTY ACID ELONGASE, PUTATIVE): 1.11 | fold change (protein LMJF.14.1160 ENOLASE): 0.99 | fold change (protein LMJF.14.1440 HY[…], CONSERVED): 1.02 | fold change (protein LMJF.15.0190 HYPOTHETICAL PROTEIN, CONSERVED): 0.96 | fold change (protein LMJF.15.1160 TR[…]): 1.03 | fold change vs vehicle control (protein LMJF.15.1380 NUCLEOLAR RNA BINDING PROTEIN, PUTATIVE): 0.93 | fold change (protein LMJF.16.0760 TRANSALDOLASE, PUTATIVE): 1.14 | fold change (protein LMJF.16.0940 DYNEIN LIGHT CHAIN, PUTATIVE): 1.13 | fold change (protein LMJF.17.0081 […] 1-ALPHA): 1.13 | fold change (protein LMJF.17.0980 HYPOTHETICAL PROTEIN, CONSERVED): 0.98 | fold change (protein LMJF.18.0210 HYPOTHETICAL PROTEIN, CONSERVED): 1.36 | fold change (protein LMJF.18.0580 PEROXISOMAL ENOYL-COA HYDRATASE, PUTATIVE): 0.93 | fold change (protein LMJF.18.0680 CITRATE SYNTHASE, PUTATIVE): 0.9 | fold change (protein LMJF.18.0740 ELONGATION FACTOR TU, PUTATIVE): 0.95 | fold change (protein LMJF.18.1010 DYNEIN LIGHT CHAIN 2B, CYTOPLASMIC, PUTATIVE): 0.95 | fold change vs vehicle control (protein LMJF.18.1210 PROLYL-TRNA SYNTHETASE, PUTATIVE,BI[…]-TRNA SYNTHETASE, PUTATIVE): 1.06 | fold change (protein LMJF.18.1380 PYRUVATE DEHYDROGENASE E1 COMPONENT ALPHA SUBUNIT, PUTATIVE): 0.81 | fold change (protein LMJF.19.0100 FIBRILLARIN, PUTATIVE): 0.96 | fold change vs vehicle control (protein LMJF.19.0710 GLYCOSOMAL MALATE DEHYDROGENASE): 0.97 | fold change (protein LMJF.19.0750 HY[…], CONSERVED): 1.02 | fold change (protein LMJF.19.0995 4-COUMARATE:COA LIGASE-LIKE PROTEIN): 1.4 | fold change (protein LMJF.19.1010 HY[…], CONSERVED): 1.43 | fold change (protein LMJF.19.1420 CYSTEINE PEPTIDASE A (CPA)): 0.49 | fold change (protein LMJF.19.1560 INOSINE-5'-MONOPHOSPHATE DEHYDROGENASE): 1.12 | fold change vs vehicle control (protein LMJF.19.1620 POTASSIUM VOLTAGE-GATED CHANNEL, PUTATIVE): 0.91 | fold change (protein LMJF.21.0280 HY[…], CONSERVED): 1.04 | fold change (protein LMJF.21.1090 T-COMPLEX PROTEIN 1, DELTA SUBUNIT, PUTATIVE): 0.97 | fold change vs vehicle control (protein LMJF.21.1552 RNA HELICASE, PUTATIVE): 0.96 | fold change (protein LMJF.21.1710 […] OXIDASE SUBUNIT VI, PUTATIVE): 0.99 | fold change (protein LMJF.21.1830 […] 5 SUBUNIT, PUTATIVE): 1.18 | fold change (protein LMJF.22.0420 40S RIBOSOMAL PROTEIN S15, PUTATIVE): 1.16 | fold change (protein LMJF.22.0570 […] SUBUNIT 1, PUTATIVE): 1.02 | fold change (protein LMJF.22.1360 FARNESYL PYR[…]): 1.16 | fold change (protein LMJF.22.1450 CYCLOPHILIN 6, PUTATIVE): 0.85 | fold change (protein LMJF.23.0040 PEROXIDOXIN): 1.12 | fold change (protein LMJF.23.0200 ENDORIBONUCLEASE L-PSP (PB5), PUTATIVE): 0.93 | fold change (protein LMJF.23.0560 KINESIN, PUTATIVE): 0.97 | fold change (protein LMJF.25.1710 PYRUVATE DEHYDROGENASE E1 BETA SUBUNIT, PUTATIVE): 0.8 | fold change (protein LMJF.26.0280 HY[…], CONSERVED): 1.17 | fold change (protein LMJF.26.0830 […], PUTATIVE): 0.84 | fold change (protein LMJF.27.0190 […] 7 SUBUNIT, PUTATIVE): 1.07 | fold change (protein LMJF.27.0560 PROTEIN KINASE, PUTATIVE,CDC2-RELATED KINASE, PUTATIVE): 1.08 | fold change (protein LMJF.27.0760 GTP-binding protein homologue): 0.91 | fold change (protein LMJF.27.0930 ISOVALERYL-COA DEHYDROGENASE, PUTATIVE): 1.18 | fold change (protein LMJF.27.1260 T-COMPLEX PROTEIN 1, BETA SUBUNIT, PUTATIVE): 0.99 | fold change (protein LMJF.27.1300 HY[…], CONSERVED): 1.06 | fold change (protein LMJF.27.1390 60S ACIDIC RIBOSOMAL SUBUNIT PROTEIN, PUTATIVE): 1.12 | fold change (protein LMJF.27.2330 GTP BINDING PROTEIN, PUTATIVE): 1 | fold change (protein LMJF.28.0960 40S RIBOSOMAL PROTEIN S14): 1.2 | fold change vs vehicle control (protein LMJF.28.0980 P27 PROTEIN, PUTATIVE): 0.95 | fold change (protein LMJF.28.2260 […] PROTEIN, PUTATIVE): 1.03 | fold change (protein LMJF.28.2420 2-OXOGLUTARATE DEHYDROGENASE, E2 COMPONENT, DIHYDROLIPOAMIDE SUCCINYLTRANSFERASE, PUTATIVE): 0.95 | fold change (protein LMJF.28.2430 VACUOLAR ATP SYNTHASE SUBUNIT B, PUTATIVE): 0.83 | fold change (protein LMJF.28.2460 RIBOSOMAL PROTEIN S29, PUTATIVE): 1.24
